These results are taken from article PMC4851370, “The N-Terminus of the Floral Arabidopsis TGA Transcription Factor PERIANTHIA Mediates Redox-Sensitive DNA-Binding”.

Where a chain is given by its changes, count along the chain named. For at least one entry, the source does not settle the construct or the ends of the probe. For some assays here: A weaker result is weaker than the reference pair of the same experiment. Tags and fusion partners may be left off the protein sequences shown. At least one verdict rests on a figure or table, not on a statement of the authors.

Holding throughout (experiment): EMSA
Data set [1] has as its target T1, PANC87S (Arabidopsis thaliana) (UniProt Q9SX27).
T1 sequence (looked up): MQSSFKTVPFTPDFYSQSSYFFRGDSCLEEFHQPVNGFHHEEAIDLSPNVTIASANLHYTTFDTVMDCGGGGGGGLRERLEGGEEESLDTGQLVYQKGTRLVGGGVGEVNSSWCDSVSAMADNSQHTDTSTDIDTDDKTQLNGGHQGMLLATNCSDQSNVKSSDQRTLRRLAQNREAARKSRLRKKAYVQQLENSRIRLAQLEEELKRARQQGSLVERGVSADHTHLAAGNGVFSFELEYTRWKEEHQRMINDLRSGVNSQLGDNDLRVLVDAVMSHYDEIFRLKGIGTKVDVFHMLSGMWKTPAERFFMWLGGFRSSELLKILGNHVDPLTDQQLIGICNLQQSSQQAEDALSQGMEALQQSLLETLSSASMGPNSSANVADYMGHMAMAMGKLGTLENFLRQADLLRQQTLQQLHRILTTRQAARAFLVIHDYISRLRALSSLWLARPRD
The conditions noted are these: with or without 0.9 or 20 mM DTT or 2 mM diamide, 30 min in the dark before probe addition, protein translated in vitro, residues 1-452, label: 5' 32P.

In data set [2] the target is T2, PANC114S (Arabidopsis thaliana) (UniProt Q9SX27).
T2 sequence (looked up): T1 sequence (looked up) with S87C, C114S
The conditions noted are these: with or without 0.9 or 20 mM DTT or 2 mM diamide, 30 min in the dark before probe addition, protein translated in vitro, residues 1-452, label: 5' 32P.

The target in data set [3] is T3, PANC27SC68SC87SC114SC154S (Arabidopsis thaliana) (UniProt Q9SX27).
T3 sequence (looked up): T1 sequence (looked up) with C27S, C68S, C114S, C154S
Conditions: 0.9 mM DTT; with or without 0.9 or 20 mM DTT or 2 mM diamide, 30 min in the dark before probe addition; protein translated in vitro; residues 1-452; label: 5' 32P.

Consider “AAGAATCTTTGATCACGTCATCACTCAGATATT (double strand)”, for which the binding result in data set [1] (0.9 mM DTT) is recorded as “binds”; in data set [1] (2 mM diamide), “binds more weakly”; in data set [2] (0.9 mM DTT), “binds”; in data set [2] (2 mM diamide), “binds more weakly”; in data set [3], “binds”.
